Source: PubChem BioAssay AID504772 (Drosophila RNAi Screening Center, 2011)
Test: 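Genes that raise or lower Wnt activity at the LRP6 co-receptor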 (primary screen). Cell system: Drosophila clone 8 cells. Reagents: long dsRNA against Drosophila genes. Duration: four days. Treatment: pathway switched on by co-transfected constitutively active LRP6 lacking its extracellular part (DeltaNLRP6). Detection: 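Wnt reporter luminescence divided by Renilla signal, recorded as a rise or fall, four days after knockdown in cells made active by an LRP6 form missing its extracellular part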. Active means: 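a gene is picked when its silencing raises Wnt reporter signal by twofold or more and a human counterpart of the fly gene is known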. Meaning of the calls: active = picked as conserved enhancer hit; inactive = not picked.
The reagents shown are a selection, not the whole library. 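Only primary screen hits listed, as up or down without numbers; fold changes behind calls not deposited; all reporter-lowering hits marked not picked.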 A plus sign joins genes that one reagent is predicted to hit. Not stated in the record: the amount of reagent, the dose of the treatment.

What did the screen give for mxt [DRSC00551]?
reporter change after knockdown: reporter signal went up; Call: inactive

How did the screen score E2f1 [DRSC16655]?
reporter change after knockdown: reporter signal went down; Call: inactive

With Rcd2 [DRSC11756], what was measured?
reporter change after knockdown: reporter signal went up; Call: inactive

For pnt [DRSC17028], what was measured?
reporter change after knockdown: reporter signal went down; Call: inactive

For Wdr33 [DRSC12162], what was measured?
reporter change after knockdown: reporter signal went down; Call: inactive

For prd1 [DRSC15227], what does the deposit list?
reporter change after knockdown: reporter signal went up; Call: inactive

With E(Pc) [DRSC07408], what does the deposit list?
reporter change after knockdown: reporter signal went up; Call: inactive

For CG11123 [DRSC06040], how do the results read?
reporter change after knockdown: reporter signal went up; Call: inactive

How did the screen score CG6834 [DRSC16125]?
reporter change after knockdown: reporter signal went down; Call: inactive

For CAP [DRSC06744], how do the results read?
reporter change after knockdown: reporter signal went up; Call: inactive

With MBD-R2 [DRSC14180], what does the deposit list?
reporter change after knockdown: reporter signal went up; Call: inactive

With Nup93-1 [DRSC19344], what was measured?
reporter change after knockdown: reporter signal went up; Call: inactive

Which result is listed for drn [DRSC15147]?
reporter change after knockdown: reporter signal went down; Call: inactive

How did the screen score CG1161 [DRSC12180]?
reporter change after knockdown: reporter signal went down; Call: inactive

What is on record for Hsp67Ba [DRSC11191]?
reporter change after knockdown: reporter signal went up; Call: inactive

What is on record for Pc [DRSC11873]?
reporter change after knockdown: reporter signal went up; Call: inactive

What is on record for RnpS1 [DRSC15154]?
reporter change after knockdown: reporter signal went up; Call: inactive

What is on record for CG13739 [DRSC06410]?
reporter change after knockdown: reporter signal went down; Call: inactive

What did the screen give for CG12491 + CG34105 [DRSC04124]?
reporter change after knockdown: reporter signal went up; Call: inactive

Which result is listed for gish [DRSC16154]?
reporter change after knockdown: reporter signal went down; Call: inactive

With Bap55 [DRSC07000], what was measured?
reporter change after knockdown: reporter signal went up; Call: inactive

What is on record for I-t [DRSC16713]?
reporter change after knockdown: reporter signal went up; Call: inactive

Which result is listed for Antp [DRSC12490]?
reporter change after knockdown: reporter signal went up; Call: inactive

With Rop [DRSC08693], what does the deposit list?
reporter change after knockdown: reporter signal went up; Call: inactive

With eEF1delta [DRSC02790], how do the results read?
reporter change after knockdown: reporter signal went up; Call: inactive

For CG10139 [DRSC05972], how do the results read?
reporter change after knockdown: reporter signal went up; Call: inactive

Quoted from the entries so far (3 entries):
RnpS1 [DRSC15154]: reporter change after knockdown = reporter signal went up; Call = inactive
CG13739 [DRSC06410]: reporter change after knockdown = reporter signal went down; Call = inactive
CG12491 + CG34105 [DRSC04124]: reporter change after knockdown = reporter signal went up; Call = inactive

The results go on.
What did the screen give for Myc [DRSC18762]?
reporter change after knockdown: reporter signal went down; Call: inactive

What did the screen give for CG8180 [DRSC07093]?
reporter change after knockdown: reporter signal went down; Call: inactive

With mbl [DRSC07651], how do the results read?
reporter change after knockdown: reporter signal went down; Call: inactive

For CG13148 [DRSC06275], what was measured?
reporter change after knockdown: reporter signal went up; Call: inactive

Which result is listed for sr [DRSC17067]?
reporter change after knockdown: reporter signal went down; Call: inactive

How did the screen score Vsx1 [DRSC18349]?
reporter change after knockdown: reporter signal went down; Call: inactive

Which result is listed for MED19 [DRSC10516]?
reporter change after knockdown: reporter signal went down; Call: inactive

How did the screen score Rip11 [DRSC20000]?
reporter change after knockdown: reporter signal went down; Call: inactive

What is on record for CG30089 [DRSC06127]?
reporter change after knockdown: reporter signal went down; Call: inactive

What is on record for CG13784 [DRSC02287]?
reporter change after knockdown: reporter signal went down; Call: inactive

What did the screen give for rin [DRSC17045]?
reporter change after knockdown: reporter signal went up; Call: inactive

For CG5938 [DRSC15923], what does the deposit list?
reporter change after knockdown: reporter signal went up; Call: inactive

What did the screen give for Spt6 [DRSC18836]?
reporter change after knockdown: reporter signal went down; Call: inactive

With CG34354 [DRSC14558], what does the deposit list?
reporter change after knockdown: reporter signal went down; Call: inactive

For wts [DRSC17096], how do the results read?
reporter change after knockdown: reporter signal went down; Call: inactive

What did the screen give for CG34159 [DRSC02885]?
reporter change after knockdown: reporter signal went down; Call: inactive

Which result is listed for jub [DRSC19367]?
reporter change after knockdown: reporter signal went down; Call: inactive

With z [DRSC18855], what was measured?
reporter change after knockdown: reporter signal went up; Call: inactive

For e(y)3 [DRSC19450], what does the deposit list?
reporter change after knockdown: reporter signal went down; Call: inactive

For CG44422 [DRSC19380], what does the deposit list?
reporter change after knockdown: reporter signal went down; Call: inactive

With mts [DRSC03574], what was measured?
reporter change after knockdown: reporter signal went up; Call: inactive
